This passage reports binding results from publication PMC10006230.

By UniProt entry, the sequences of proteins in these tests, tags left out.
UniProt P01106: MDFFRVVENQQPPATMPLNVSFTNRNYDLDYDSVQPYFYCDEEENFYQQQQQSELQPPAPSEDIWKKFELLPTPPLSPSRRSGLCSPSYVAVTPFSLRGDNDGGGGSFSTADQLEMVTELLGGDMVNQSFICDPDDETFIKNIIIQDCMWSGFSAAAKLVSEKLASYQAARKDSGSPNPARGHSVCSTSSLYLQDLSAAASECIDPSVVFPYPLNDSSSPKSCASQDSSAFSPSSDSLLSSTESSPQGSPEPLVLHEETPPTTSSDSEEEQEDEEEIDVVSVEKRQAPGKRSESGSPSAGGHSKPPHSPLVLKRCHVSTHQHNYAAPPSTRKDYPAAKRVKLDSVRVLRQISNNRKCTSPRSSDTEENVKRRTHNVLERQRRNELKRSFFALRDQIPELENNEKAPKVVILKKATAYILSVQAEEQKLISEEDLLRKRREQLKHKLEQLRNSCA
UniProt P26599: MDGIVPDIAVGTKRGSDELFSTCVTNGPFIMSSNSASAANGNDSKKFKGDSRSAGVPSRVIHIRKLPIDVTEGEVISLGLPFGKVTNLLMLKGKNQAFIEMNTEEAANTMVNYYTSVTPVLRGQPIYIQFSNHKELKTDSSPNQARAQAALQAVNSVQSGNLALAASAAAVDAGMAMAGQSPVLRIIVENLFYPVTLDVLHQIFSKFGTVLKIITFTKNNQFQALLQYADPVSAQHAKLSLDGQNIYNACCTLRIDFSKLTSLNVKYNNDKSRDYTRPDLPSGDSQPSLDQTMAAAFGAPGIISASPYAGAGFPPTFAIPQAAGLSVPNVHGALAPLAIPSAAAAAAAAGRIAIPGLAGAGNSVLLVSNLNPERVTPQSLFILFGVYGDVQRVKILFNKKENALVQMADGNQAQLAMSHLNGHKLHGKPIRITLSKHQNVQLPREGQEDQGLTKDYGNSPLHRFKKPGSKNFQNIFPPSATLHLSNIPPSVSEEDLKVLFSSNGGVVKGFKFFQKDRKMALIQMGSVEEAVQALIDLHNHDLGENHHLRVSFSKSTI

This test concerns the target c-Myc (human (endogenous in AGS and HGC-27)) (UniProt P01106). Put plainly: co-IP; lysates of AGS and HGC-27 cells immunoprecipitated with anti c-Myc antibodies or control IgG; PTBP1 detected by western blotting; endogenous proteins.

These are yes or no findings as the source states them, for the method shown. Binding seen in cells or lysates may run through a third protein. Some binding calls cover weakened binding; strength is not graded here.

Consider “Polypyrimidine tract binding protein 1 (from UniProt P26599 1-557)”, for which the binding result is “binds”.
